# From PubChem BioAssay AID1487 (National Center for Advancing Translational Sciences (NCATS), 2009)
# Several values for one entry are separate records, joined by “and”; a condition that tells them apart may be missing. Equal entries are not always repeated. Some of the results follow. Further columns of the screen follow, without active or inactive calls. Most of these compounds were active or inconclusive in the main read-out, so they are no random draw. Potencies come from curve fits of mixed quality, noted in brackets.
# Assay: qHTS Assay for Modulators of Lamin A Splicing
# Details: HeLa LMNA splicing GFP/RFP minigene ratio, 48 h
# Procedure, shortened: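 S3 HeLa cells stably expressing lamin A-EGFP splicing minigene plus DsRed2, 600 cells/well, 48 h compound exposure at 37C. Laser-scanning cytometry; analysed as GFP (500-530 nm)/RFP (575-640 nm) total intensity ratio; 0.5% DMSO vehicle.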
# [1] = measured here: GFP splicing reporter channel
# [2] = measured here: RFP viability control channel
SMILES,AC50 [1],AC50 [2]
Cc1ccc(OCCCOc2cccc3cccnc23)cc1C,"22.4 µM [falling, single point]",
Cc1nc(N2CCCC2)c2nnn(Cc3ccccc3Cl)c2n1,"12.6 µM [rising, partial curve]","25.1 µM [rising, single point]"
Cc1ccc(CNC(=O)Cn2c(=O)ccc3cc(S(=O)(=O)N4CCCC4)ccc32)cc1,,"0.501 µM [falling, full curve, poor fit]"
O=C(NNc1ccc(F)cc1F)c1c(F)cccc1Cl,"22.4 µM [rising, partial curve]","31.6 µM [rising, single point]"
CCOc1ccc(C(=O)NCCc2sc(-c3ccc(OC)c(OC)c3)nc2C)cc1,"10 µM [falling, partial curve]","0.0562 µM [falling, full curve, poor fit]"
Cc1ccc(C)c(N2CCN(C(=O)c3cc(C)nc4c3c(C)nn4-c3cccc(F)c3)CC2)c1,,"35.5 µM [rising, partial curve, poor fit]"
Cn1c(N2CCC(C(N)=O)CC2)nc2c1c(=O)n(Cc1cccc(Br)c1)c(=O)n2C,"20 µM [rising, single point]","20 µM [rising, partial curve]"
COc1ccccc1NS(=O)(=O)c1ccc(N/N=C(\C)C(C)C)c([N+](=O)[O-])c1,,"5.62 µM [rising, full curve]"
COc1ccc(Cn2c(SCc3ccccc3C)nc3cc(OC)c(OC)cc3c2=N)cc1,"14.1 µM [falling, partial curve]","12.6 µM [falling, partial curve]"
COc1ccccc1NC(=O)Cn1c(=O)n(CCc2c[nH]c3ccccc23)c(=O)c2cccnc21,"1.58 µM [rising, full curve]","3.55 µM [rising, full curve, poor fit]"
CN1CCN(C(=O)c2ccc(CSc3nc4ccncc4n3Cc3ccc(F)cc3)cc2)CC1,,"12.6 µM [rising, single point]"
CC(=O)SC1CC2=CC(=O)CCC2(C)C2CCC3(C)C(CCC34CCC(=O)O4)C12 (stereo unspecified),,"0.0794 µM [rising, full curve]"
O=C(CSc1nnc(-c2ccccn2)n1Cc1ccco1)c1ccc(Cl)cc1,"20 µM [rising, partial curve, poor fit]",
CCCCC(=O)NC(NC(=S)N1CCCCCC1)C(Cl)(Cl)Cl (stereo unspecified),"31.6 µM [rising, single point]","35.5 µM [rising, single point]"
Cc1nc(NCc2ccco2)c2oc3ccccc3c2n1,,"11.2 µM [rising, partial curve]"
CCOC(=O)N1CCN(c2ccc(C(=O)c3ccccc3)cc2F)CC1,,"35.5 µM [rising, single point]"
O=C(CN1CCN(c2nc(-c3ccccc3)cs2)CC1)NCc1ccc2c(c1)OCO2,"35.5 µM [rising, single point]","35.5 µM [rising, single point]"
COc1cc(C(C)=O)ccc1Oc1ncnc2c1cnn2-c1ccc(C)c(C)c1,,"3.55 µM [rising, full curve, poor fit]"
COC(=O)c1cc(OC)c(OC)cc1NC(=S)N1CCN(C/C=C/c2ccccc2)CC1,"14.1 µM [rising, single point]","35.5 µM [rising, single point]"
COC(=O)C1=C(C)NC(C)=C(C(=O)OCCN(C)Cc2ccccc2)C1c1cccc([N+](=O)[O-])c1 (stereo unspecified),"11.2 µM [rising, partial curve, poor fit] and 1.78 µM [falling, partial curve, poor fit] and 28.2 µM [falling, single point]","11.2 µM [rising, partial curve] and 2 µM [falling, partial curve] and 5.62 µM [falling, full curve, poor fit]"
CN1/C(=C\C(=O)COC(=O)CN2C(=O)C3CC=CCC3C2=O)C(C)(C)c2ccccc21 (stereo unspecified),,"35.5 µM [rising, single point]"
Nc1ccc2c3c(cccc13)C(=O)N(c1ccccc1)C2=O,"0.251 µM [rising, full curve, poor fit]",
COC(=O)c1cc(C(=O)N2CCN(c3ccccc3OC)CC2)cc([N+](=O)[O-])c1,,"0.0282 µM [falling, full curve, poor fit]"
CN(CC(=O)Nc1cc(S(=O)(=O)N2CCOCC2)ccc1Cl)C1CCS(=O)(=O)C1 (stereo unspecified),,"10 µM [rising, partial curve, poor fit]"
CCC(C)c1ccc(NC(=O)C2CCCN(c3ncccn3)C2)cc1 (stereo unspecified),"1.26 µM [falling, single point]","0.0355 µM [falling, single point]"
O=C(NC12CC3CC(CC(C3)C1)C2)N1CCN(S(=O)(=O)c2ccc(Cl)cc2)CC1,,"7.94 µM [rising, partial curve]"

# Entries of single compounds, looked up by structure:
# CN1CCN(C(=O)c2ccc(CSc3nc4ccncc4n3Cc3ccc(F)cc3)cc2)CC1 is listed with AC50 [2]: 12.6 µM [rising, single point]
# Cn1c(N2CCC(C(N)=O)CC2)nc2c1c(=O)n(Cc1cccc(Br)c1)c(=O)n2C is listed with AC50 [1]: 20 µM [rising, single point]; AC50 [2]: 20 µM [rising, partial curve]

# The list continues.

SMILES,AC50 [1],AC50 [2]
CCC(=O)C1=C(c2ccc(Cl)cc2)N(C(=O)CC)n2c(C)nnc2S1,"17.8 µM [falling, partial curve]",
Cc1ccc(N/N=C2\CCS(=O)(=O)c3sccc32)cc1,"12.6 µM [rising, partial curve, poor fit]","1.58 µM [rising, partial curve, poor fit]"
CCS(=O)(=O)c1ccc(O)c(Nc2cc(C)nc(SC)n2)c1,"35.5 µM [falling, partial curve, poor fit]",
O=C(CS(=O)(=O)Cc1ccccc1)N1CCN(c2cccc(C(F)(F)F)c2)CC1,,"35.5 µM [rising, single point]"
Cc1ccc(S(=O)(=O)C(CNC(=O)c2ccc(F)c(F)c2)c2ccco2)cc1 (stereo unspecified),,"8.91 µM [falling, partial curve, poor fit]"
O=C(Oc1ccc(OC(=O)c2ccco2)c(S(=O)(=O)c2ccc(Br)cc2)c1)c1ccco1,,"11.2 µM [falling, partial curve]"
Cn1c(=O)c(C(=O)CCl)c(N)n(Cc2ccccc2)c1=O,"4.47 µM [rising, full curve, poor fit]","11.2 µM [rising, partial curve]"
COC(=O)C[C@H]1c2ccccc2[C@H]2C(=C[C@@H](C)[C@H]3C(=O)N(O)C(=O)[C@H]32)N1C(=O)OC,"0.562 µM [rising, full curve, poor fit]","3.16 µM [rising, partial curve, poor fit]"
Cc1ccc(S(=O)(=O)c2nc(Nc3ccccc3)sc2Cl)cc1,"25.1 µM [rising, single point]","11.2 µM [rising, single point]"
O=C(/C=C/c1ccc(Cl)c([N+](=O)[O-])c1)Nc1cccc(NC(=O)c2ccco2)c1,,"35.5 µM [rising, single point]"
O=C(Nc1ccon1)c1ccc(OC2CCCC2)cc1,,"22.4 µM [rising, single point]"
Cc1cc(C)cc(OCC(=O)NC2CCCc3ccccc32)c1 (stereo unspecified),,"10 µM [rising, partial curve]"
CC(C)c1cnc2c(c1SCC(=O)Nc1ccc(OC(F)(F)F)cc1)c(=O)n(C)c(=O)n2C,"6.31 µM [rising, single point]","20 µM [rising, single point]"
O=C(CCCN1C(=O)c2cccnc2Oc2ccc(Cl)cc21)NCc1ccccc1F,,"0.355 µM [falling, full curve]"
O=C(O)c1cc(-c2cccs2)nn1-c1cccc(Cl)c1,"0.0708 µM [rising, single point]",
COc1ccc(NS(=O)(=O)c2cc(NC(=O)c3ccc(F)cc3)ccc2OC)cc1,,"11.2 µM [rising, single point]"
c1ccc2c(c1)CCN(c1nc3cc4c(cc3s1)OCO4)C2,,"14.1 µM [rising, single point]"
COc1cc(C(=O)Nc2nc3ccc(C)cc3s2)ccc1OCc1c(C)noc1C,,"8.91 µM [falling, partial curve, poor fit]"
CC(C)NC(=O)c1ccc(-n2c(-c3ccccc3)cc3c2CCCC3)cc1,"2.51 µM [falling, partial curve]",
O=C(NC(Nc1nc2ccc([N+](=O)[O-])cc2s1)(C(F)(F)F)C(F)(F)F)c1ccccc1Cl,"1.78 µM [rising, single point]","2 µM [rising, partial curve]"
N#Cc1cccc(-c2nccc(NCc3ccccc3)n2)c1,"17.8 µM [falling, partial curve, poor fit]","11.2 µM [falling, single point]"
Cn1c(=O)c2c(SCc3cccc(C(F)(F)F)c3)nc(-c3ccco3)nc2n(C)c1=O,"1.58 µM [falling, partial curve]","1.58 µM [falling, partial curve]"
O=C(CC(NC(=O)c1ccccc1)c1ccccc1)Nc1ccc(F)c(F)c1 (stereo unspecified),"8.91 µM [falling, partial curve]","10 µM [falling, partial curve, poor fit]"
O=c1cc2c(nn1Cc1ccc(Cl)cc1)-c1ccccc1CC2,,"35.5 µM [rising, single point]"
CS(=O)(=O)N1CCN(c2ncccn2)CC1,,"0.158 µM [falling, full curve, poor fit]"
